# In patent US7932283B2, “Fungicide N-cyclopropyl-sulfonylamide derivatives” (Bayer Cropscience AG, priority 2006, dated 2011):
# Some results were stated once for a whole list of compounds, not compound by compound. At least one compound was matched to its structure with a doubt left.
# Test system: Mycosphaerella graminicola
# Assay: In vivo test on Mycosphaerella graminicola (wheat leaf spot)
# Conditions: wheat plants (Scipion variety), 500 ppm, grading 21 to 28 days after contamination; good (at least 70%) or total protection
# Protocol: In vivo Test on Mycosphaerella graminicola (Wheat Leaf Spot)
# The active ingredients tested are prepared by homogenisation in a mixture of acetone/tween/DMSO, and then diluted with water to obtain the desired active material concentration.
# Wheat plants (Scipion variety), sown on a 50/50 peat soil-pozzolana substrate in starter cups and grown at 12° C., are treated at the 1-leaf stage (10 cm tall) by spraying with the active ingredient prepared as described above.
# Plants, used as controls, are treated with the mixture of acetone/tween/DMSO/water not containing the active material.
# After 24 hours, the plants are contaminated by spraying them with an aqueous suspension of Mycosphaerella graminicola spores (500 000 spores per ml). The spores are collected from a 7-day-old culture. The contaminated wheat plants are incubated for 72 hours at 18° C. and at 100% relative humidity, and then for 21 to 28 days at 90% relative humidity.
# Grading (% of efficacy) is carried out 21 to 28 days after the contamination, in comparison with the control plants.
structure (smiles),measurement,value
COc1nn(C)cc1C(=O)N(C1CC1)S(=O)(=O)c1ccc(Oc2ccc(C)cc2)cc1Cl [Compound 496],protection (% of efficacy),at least 70%
